# Measurements from PubChem BioAssay AID493014 (National Center for Advancing Translational Sciences (NCATS), 2011).
# Screen size: about 340,000 compounds; about 170 (0.05%) were called active. Inconclusive results, whose numbers are uncertain, are shown with a selection of clear calls. Calls follow the shape of the dose curve; as a rule, active = well fitted inhibition curve with a large enough effect in the signal ratio, with a control signal flat (not every such curve was filed as active); inconclusive = small, poorly fitted or top-dose-only effect, or effect the other way, or a change in a side signal; inactive = flat fitted curve, though single readings scatter; the % refers to the signal ratio. Where the call is inconclusive, the potency comes from a doubtful curve fit.
# Assay: qHTS Assay to Find Inhibitors of Chronic Active B-Cell Receptor Signaling;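 as to activity change, negative = inhibition: plate controls were basal doxycycline-induced cells for no effect and cells given 10 µM MG132 for full effect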
# Settings: ABC-DLBCL IkBa-CBG/CBR reporter, luminescence ratio (green luciferase fused to IkBa over red control in TMD8 lymphoma cells), 4 h; activity change, negative = inhibition: at 46.1 µM (top of the series)
# Method in brief: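 TMD8 ABC-DLBCL cells carrying doxycycline-inducible green luciferase fused to IkappaBalpha plus unfused red luciferase were exposed to compounds (up to 46 uM) for 4 hrs at 37C. Activity came from the overlap-corrected green/red luminescence ratio.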
# Potency is read from the fitted curve at half-maximal effect.
SMILES,Potency,"activity change, negative = inhibition"
Cc1ccc(SCc2cn3c(C)csc3n2)cc1,"inconclusive: 29.1 µM [falling, single point]",–
O=C(CN1CCN(S(=O)(=O)c2ccc(F)cc2)CC1)Nc1ccc(F)cc1F,"inconclusive: 22.4 µM [falling, partial curve]",–
Cc1c(C(=O)N2CCN(c3ccccc3)CC2)sc2ncnc(N3CCC(C)CC3)c12,–,inactive
CC(NC(=O)c1ccc(OC2CCN(S(=O)(=O)N(C)C)CC2)cc1)C1CC1 (configuration not stated),"inconclusive: 6.31 µM [falling, single point]",–
C[C@@H]1CCCCCCCCC(=O)OCCN(C(=O)OC(C)(C)C)[C@H](C)CCCCCCCCC(=O)OCCN(C(=O)OC(C)(C)C)[C@H](C)CCCCCCCCC(=O)OCCN(C(=O)OC(C)(C)C)[C@H](C)CCCCCCCCC(=O)OCCN1C(=O)OC(C)(C)C,–,inconclusive: 2.11%
COC(=O)Cc1cn(-c2ncc(C(F)(F)F)cc2Cl)c2ccccc12,"inconclusive: 18.4 µM [rising, partial curve, poor fit]",–
Cc1ccc(CN=C(N)Nc2nc(C)cc(C)n2)cc1,"inconclusive: 35.5 µM [falling, single point]",–
CCCCNC(=O)c1cc2ccccc2s1,"inconclusive: 31.6 µM [falling, single point]",–
Cc1ccc(C2=CC(=O)C[C@H](c3ccc4c(c3)OCO4)C2)cc1,–,inactive
CCn1c2ccccc2c2cc(NC(=O)c3cc(OC)c(OC)c(OC)c3)ccc21,"inconclusive: 0.708 µM [falling, full curve]",–
CCOC(=O)CNc1c(-c2ccc(O)cc2)nc2ccc(Cl)cn12,"inconclusive: 29.1 µM [falling, single point]",–
COc1ccc(-n2ncc3c(N4CCN(c5cccc(C)c5)C(C)C4)ncnc32)cc1 (configuration not stated),"inconclusive: 4.47 µM [falling, full curve, poor fit]",–
CN(c1ccc(OCC(=O)Nc2ccc3[nH]c(=O)[nH]c3c2)cc1)S(=O)(=O)c1ccc(Cl)cc1,"inconclusive: 25.9 µM [rising, single point]",–
Cc1ccc(NC(=O)c2ccc3nc[nH]c3c2)c(O)c1,–,inconclusive: -18.3%
Cc1cc(-c2ccco2)c(C#N)c2nc3ccccc3n12,–,inactive
Cc1ccc(C(=O)N/N=C\c2cccn2C)cn1,–,inconclusive: -10.8%
CCOC(=O)c1c(C)n(OC)c2ccc3c(no[n+]3[O-])c12,–,inconclusive: -14.1%
CC1Sc2ccc(S(=O)(=O)N3CCN(c4ccccc4)CC3)cc2NC1=O (configuration not stated),–,inconclusive: 7.6%
O=C(COC(=O)COc1ccccc1[N+](=O)[O-])Nc1ccc2c(c1)OCO2,–,inactive
CCOC(=O)c1cnc2c(c(C)nn2C)c1Oc1ccc(Cl)cc1,–,inconclusive: -5.69%
COc1ccc(S(=O)(=O)N2CCCCCC2)cc1C(=O)N(C)Cc1ccco1,–,inconclusive: 8.16%
O=C(NCc1ccc(F)cc1)c1cccc2c1C(=O)c1ccc(N3CCC(Cc4ccccc4)CC3)cc1S2(=O)=O,–,inconclusive: 3.24%
CC(Oc1ccc(Br)cc1)c1nc2c3ccccc3nc(=S)n2[nH]1 (configuration not stated),"inconclusive: 0.631 µM [falling, partial curve, poor fit]",–
CCN1CCN(S(=O)(=O)c2ccc3c4c(cccc24)C(=O)N3CC)CC1,–,inconclusive: -6.45%

# In the list so far, 2 contain a furan ring, fused or not:
SMILES,Potency,"activity change, negative = inhibition"
Cc1cc(-c2ccco2)c(C#N)c2nc3ccccc3n12,–,inactive
COc1ccc(S(=O)(=O)N2CCCCCC2)cc1C(=O)N(C)Cc1ccco1,–,inconclusive: 8.16%

# (next part)

SMILES,Potency,"activity change, negative = inhibition"
Cc1cccc(NC(=O)c2ccccc2NC(=O)c2ccccc2)n1,–,inconclusive: -2.51%
COC(=O)c1c(N2C(=O)CC(Sc3ccccc3C(=O)O)C2=O)sc(C)c1C (configuration not stated),"inconclusive: 3.16 µM [falling, partial curve, poor fit]",–
Nc1nnc(SCC(=O)Nc2ccc3c(c2)OCCO3)s1,"inconclusive: 10.3 µM [falling, partial curve, poor fit]",–
Cc1ccc(C)c(NC(=O)C2CCCN(S(=O)(=O)c3c(C)noc3/C=C/N(C)C)C2)c1 (configuration not stated),–,inactive
CNC(=O)COC(=O)c1cccnc1SC,"inconclusive: 20.6 µM [falling, single point]",–
O=C(O)C1CCCCC1C(=O)Nc1nc(-c2ccc(Cl)s2)cs1 (configuration not stated),–,inconclusive: 12.3%
CCC(C)(C)NC(=O)C(c1cccnc1)N(C(=O)c1csnn1)c1ccccc1 (configuration not stated),–,inconclusive: 4.9%
COc1cc(NC(=O)c2cccs2)c(C(=O)OCC(=O)NC(=O)NC(C)(C)C)cc1OC,"inconclusive: 29.1 µM [falling, single point]",–
O=c1c(Cl)cc(Cl)nn1-c1ccccc1,–,inconclusive: 5.94%
Fc1ccccc1/C=N/Nc1nc2ccccc2o1,"inconclusive: 31.6 µM [rising, single point]",–
Cc1ccc(-n2nnnc2-c2cnoc2-c2cccc(F)c2)cc1,–,inactive
COCCN(CC(=O)Nc1cc(Cl)ccc1-n1cncn1)Cc1nc2ccccc2c(=O)[nH]1,–,inactive
Cc1cc(NC(=O)COc2ccccc2)n(-c2ccccc2)n1,–,inconclusive: 2.73%
Cc1c(/C=N/NC(=O)c2ccc(Br)o2)cnn1C,–,inconclusive: 0.094%
COc1cc(CNc2ccc(N3CCN(C(C)=O)CC3)cc2)ccc1OCc1ccccc1,–,inconclusive: -4.27%
CCCS(=O)(=O)N1CCN=C1SCc1cccc(C)c1,–,inactive
NC(=O)CC(NC(=O)c1cccc(Br)c1)c1ccc(NC2CCCCCCCCCCC2)c([N+](=O)[O-])c1 (configuration not stated),"inconclusive: 14.1 µM [falling, single point]",–
CCCCc1cc(=O)oc2cc(OC(C)C(=O)NCC3CCC(C(=O)O)CC3)c(Cl)cc12 (configuration not stated),–,inactive
CC(C)(C)Nc1nc(-c2ccccn2)nc2ccccc12,–,inconclusive: -9.41%
NNC(=O)c1ccc(Cn2cc(Cl)cn2)o1,"inconclusive: 5.62 µM [falling, full curve, poor fit]",–
CC1=NN(c2ccc(C(=O)O)cc2)C(=O)/C1=C\c1ccc(OC(=O)c2cccs2)cc1,–,inconclusive: -4.74%
O=Cc1c(-[n+]2ccccc2)nc([O-])n1-c1ccccc1,–,inconclusive: 17.3%
Cn1ccnc1Sc1nc(Nc2cccc(Cl)c2)nc(N2CCOCC2)n1,–,inactive
